From patent publication US20250268868A1, “AGENT FOR REDUCING VISCERAL FAT WEIGHT” (Kowa Co., Ltd., priority 2009, published 2025)
At least one compound was matched to its structure with a doubt left.

What was measured:
[1] = tested on: Zucker fatty rats; assay: Epididymal fat weight (indicator of visceral fat weight) in Zucker fatty rats; format: in vivo, rat; settings: fenofibrate 300 mg/kg, oral once a day for 14 days
Method: (§1) This test employed (R)-2-[3-[[N-(benzoxazol2-yl) -N-3-(4-methoxyphenoxy)propyl]aminomethyl]phenoxy]butyric acid (hereinafter will be referred to as “compound A”), which is an optically active substance of the compound disclosed in Example 14 in Patent Document 2. Compound A or fenofibrate was administered to Zucker fatty rats, and the effects of the compound on plasma triglyceride (TG) level, plasma FGF21 level, and epididymal fat weight were determined through the below-described methods.
(§2) Hyperlipidemic Zucker fatty rats with obesity due to overeating (Crlj: ZUC-Lepr Genotype: fa/fa) and Zucker lean rats without obesity (Crlj: ZUC-Lepr Genotype: fa/+ or +/+) were purchased from Charles River Laboratories Japan Inc. (eight weeks old upon test).
(§3) Throughout the test period, the rats were reared in a rearing cage (light-dark cycle (light period by interior lighting: 7:00 a.m. to 7:00 p.m.), temperature: 23+3° C., humidity: 55±15%) under conditions where solid feed (CE-2, product of Oriental Yeast Co., Ltd.) and tap water were fed ad libitum. […]
(§4) On day 14 after initiation of administration, blood was collected after four-hour fasting following administration, and plasma triglyceride level and plasma FGF21 level were measured through an enzymatic method and ELISA (Human FGF-21 ELISA Kit, product of Biovender), respectively. […]

[2] = tested on: FGF21; settings: fenofibrate drug administered to a hypertriglyceridemia patient for two weeks; cited from earlier work
[3] = tested on: Zucker fatty rats; assay: Plasma triglyceride (TG) level in Zucker fatty rats, enzymatic method; format: in vivo, rat; settings: fenofibrate 300 mg/kg, oral once a day for 14 days, blood on day 14 after four-hour fasting
Method: as §1, §2, §3, §4

[4] = tested on: FGF21; assay: Plasma FGF21 level in Zucker fatty rats, ELISA; format: in vivo, rat; settings: fenofibrate 300 mg/kg, oral once a day for 14 days, day 14
Method: as §1, §2, §3, §4

SMILES: CC(C)OC(=O)C(C)(C)Oc1ccc(C(=O)c2ccc(Cl)cc2)cc1 [Fenofibrate, fenofibrate]
- epididymal fat weight versus control group [1]: only a slight effect on epididymal fat weight
- increase of serum FGF21 level [2]: 28%
- plasma triglyceride level versus control group [3]: only slightly lower than that in the control group
- plasma FGF21 level versus control group [4]: only slightly higher than that in the control group
